In PMC8566228:
Results are given in words; binding and its absence hold for the method and conditions named. In cells and extracts the contact can be indirect. Some entries that bind do so weakly or less than the wild type.

Chains of the proteins cited; added tags and fusions are not shown.
UniProt A0A0G2K2P5: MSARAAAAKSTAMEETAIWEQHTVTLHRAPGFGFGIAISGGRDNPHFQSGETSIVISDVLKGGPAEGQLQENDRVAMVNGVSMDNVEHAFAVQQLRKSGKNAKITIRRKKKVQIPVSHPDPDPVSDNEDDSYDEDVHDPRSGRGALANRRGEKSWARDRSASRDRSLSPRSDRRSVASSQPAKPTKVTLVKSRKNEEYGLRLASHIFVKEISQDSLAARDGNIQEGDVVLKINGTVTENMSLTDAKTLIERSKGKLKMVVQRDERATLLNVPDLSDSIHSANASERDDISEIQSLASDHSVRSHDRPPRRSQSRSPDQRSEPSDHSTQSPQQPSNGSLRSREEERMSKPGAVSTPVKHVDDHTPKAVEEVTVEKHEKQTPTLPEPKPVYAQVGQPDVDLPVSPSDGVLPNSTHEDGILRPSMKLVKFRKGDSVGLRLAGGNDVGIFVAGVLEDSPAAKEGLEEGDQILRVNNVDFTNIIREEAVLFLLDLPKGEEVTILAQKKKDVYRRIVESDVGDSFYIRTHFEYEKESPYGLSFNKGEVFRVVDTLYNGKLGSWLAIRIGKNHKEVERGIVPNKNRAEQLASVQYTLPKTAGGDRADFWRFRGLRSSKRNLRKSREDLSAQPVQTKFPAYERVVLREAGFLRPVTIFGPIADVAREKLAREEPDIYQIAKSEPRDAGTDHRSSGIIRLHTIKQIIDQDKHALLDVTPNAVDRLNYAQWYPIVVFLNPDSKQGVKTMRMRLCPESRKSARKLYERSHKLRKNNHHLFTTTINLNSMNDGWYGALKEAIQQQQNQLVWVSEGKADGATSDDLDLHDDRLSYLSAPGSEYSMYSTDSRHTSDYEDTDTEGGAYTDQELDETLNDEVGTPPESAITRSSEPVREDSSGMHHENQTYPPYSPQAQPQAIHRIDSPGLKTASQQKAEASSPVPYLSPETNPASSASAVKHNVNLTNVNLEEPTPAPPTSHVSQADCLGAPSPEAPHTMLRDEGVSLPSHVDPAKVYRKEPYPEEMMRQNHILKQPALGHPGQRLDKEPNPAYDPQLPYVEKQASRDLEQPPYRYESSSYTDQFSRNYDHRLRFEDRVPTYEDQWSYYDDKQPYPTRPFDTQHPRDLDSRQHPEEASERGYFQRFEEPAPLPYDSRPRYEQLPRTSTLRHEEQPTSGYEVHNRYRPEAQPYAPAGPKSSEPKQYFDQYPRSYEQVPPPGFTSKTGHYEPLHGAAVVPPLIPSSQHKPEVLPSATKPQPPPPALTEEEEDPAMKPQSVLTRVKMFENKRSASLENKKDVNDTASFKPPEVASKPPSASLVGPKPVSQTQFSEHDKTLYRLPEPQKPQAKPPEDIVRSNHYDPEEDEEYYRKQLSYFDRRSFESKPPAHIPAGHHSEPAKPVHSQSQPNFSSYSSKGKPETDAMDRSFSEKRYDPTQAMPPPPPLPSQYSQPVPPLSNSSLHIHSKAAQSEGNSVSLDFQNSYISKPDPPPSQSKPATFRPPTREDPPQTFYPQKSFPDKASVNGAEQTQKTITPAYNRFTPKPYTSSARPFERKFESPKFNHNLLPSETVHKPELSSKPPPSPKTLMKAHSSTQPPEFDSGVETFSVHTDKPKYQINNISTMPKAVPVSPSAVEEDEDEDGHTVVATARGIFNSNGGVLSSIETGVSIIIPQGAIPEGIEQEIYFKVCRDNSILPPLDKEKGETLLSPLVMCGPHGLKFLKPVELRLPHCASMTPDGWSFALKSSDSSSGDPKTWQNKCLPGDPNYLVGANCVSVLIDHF

Biological target: T1, heat-shock protein APG2 (rat (endogenous in IEC-6)) (UniProt O88600)
T1 sequence: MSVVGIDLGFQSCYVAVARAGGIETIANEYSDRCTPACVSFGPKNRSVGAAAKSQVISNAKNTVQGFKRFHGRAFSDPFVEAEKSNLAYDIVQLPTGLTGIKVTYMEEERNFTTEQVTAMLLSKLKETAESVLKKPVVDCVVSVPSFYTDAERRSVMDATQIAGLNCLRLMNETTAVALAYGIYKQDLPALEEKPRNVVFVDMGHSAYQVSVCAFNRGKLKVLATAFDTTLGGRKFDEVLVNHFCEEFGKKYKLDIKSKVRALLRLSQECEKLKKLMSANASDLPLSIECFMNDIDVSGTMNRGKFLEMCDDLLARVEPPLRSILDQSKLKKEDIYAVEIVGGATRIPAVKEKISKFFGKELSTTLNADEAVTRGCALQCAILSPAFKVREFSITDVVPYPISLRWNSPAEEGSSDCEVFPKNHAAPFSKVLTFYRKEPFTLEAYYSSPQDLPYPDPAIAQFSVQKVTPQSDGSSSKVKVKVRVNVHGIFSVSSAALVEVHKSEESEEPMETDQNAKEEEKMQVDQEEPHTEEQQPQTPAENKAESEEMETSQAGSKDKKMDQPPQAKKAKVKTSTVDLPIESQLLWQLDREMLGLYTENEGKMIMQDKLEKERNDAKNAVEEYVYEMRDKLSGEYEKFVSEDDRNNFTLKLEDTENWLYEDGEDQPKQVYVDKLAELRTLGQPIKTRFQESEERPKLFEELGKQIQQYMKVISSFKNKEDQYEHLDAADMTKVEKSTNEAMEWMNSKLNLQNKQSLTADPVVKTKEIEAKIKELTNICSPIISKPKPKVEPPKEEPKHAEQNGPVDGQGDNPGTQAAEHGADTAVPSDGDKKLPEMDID
Experiment: co-IP; IEC-6 lysate (1% NP40, 20 mM Tris, 150 mM NaCl, 2 mM EDTA, pH 7.4); IP antibody on protein G Sepharose, 500 ug protein extract, 1 h; western blot; cells with or without dexamethasone and/or SP-D; each protein in turn as bait

- binding: binds
Substance: Zonula occludens-1 (from UniProt A0A0G2K2P5 1-1765)
